Values joined by “and” are separate entries in the source; they are usually repeats but may differ in a detail not shown here. Equal values may be shown once. Where a name gives a salt, the structure may show the parent alone. The list shows a part of the results. This data set is noisy: repeats of one test often differ as much as different tests do.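 HEK293T cells were given each compound shortly before transfection with a reporter in which red mCherry is followed by the SARS-CoV-2 frameshift element and then GFP in the −1 frame, so GFP appears only after frameshifting.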
What follows are molecules tested on HEK293T (assay: percent viability (nuclei count) relative to control; higher = more viable cells). Conditions: 10 µM; 24 h.

Structure (SMILES)	percent viability
S=C=NCc1ccccc1	16.2%
Cc1ncc[nH]1.ClCC1CO1 [colestilan]	64.5%
CC(C(=O)c1ccccc1)N(C)C (stereo unspecified) [metamfepramone]	166%
CCCC(C)(COC(N)=O)COC(=O)NC1CC1 (stereo unspecified) [lorbamate]	155%
C[C@@H](CO)NC(=O)[C@@H]1C=C2c3cccc4[nH]cc(c34)C[C@H]2N(C)C1	283%
CC[N+]1(CC)CCC(OC(=O)C(O)(c2ccccc2)c2ccccc2)C1 (stereo unspecified) [benzilonium]	345%
CCNC1=Nc2ccc(Cl)cc2C(C)(c2ccccc2)O1 (stereo unspecified) [etifoxine]	81.8%
COc1ccc(CN2CCNCC2)c(OC)c1OC	96.2%
C/C(=C\c1csc(C)n1)[C@@H]1C[C@@H]2O[C@]2(C)CCC[C@H](C)[C@H](O)[C@@H](C)C(=O)C(C)(C)[C@@H](O)CC(=O)O1 [patupilone]	26%
NC1=NCC(c2ccccc2)O1 (stereo unspecified) [aminorex]	143%
C#CCO[C@H]1CN2CCC1CC2 [talsaclidine]	186%
CCOc1ccc2c3c1O[C@H]1[C@@H](O)C=C[C@H]4[C@@H](C2)N(C)CC[C@@]341	290%
CN1[C@@H]2CC[C@H]1C[C@@H](OC(=O)[C@H](CO)c1ccccc1)C2 [Levsin]	72.2%
NC(=O)c1cc([N+](=O)[O-])cc([N+](=O)[O-])c1	137%
CCC(Br)(CC)C(=O)NC(N)=O [carbromal]	150%
CCCC(C)C1(CC)C(=O)NC(=S)NC1=O (stereo unspecified) [Trapanal]	305%

Structure (SMILES)	percent viability
c1ccc(C2(N3CCCCC3)CCCCC2)cc1 [phencyclidine]	333%
CCOC(=O)[C@H]1[C@@H](OC(=O)c2ccccc2)C[C@@H]2CC[C@H]1N2C	207%
CCCCCc1cc(O)c2c(c1)OC(C)(C)c1ccc(C)cc1-2 [cannabinol]	124%
CNC(C)(C)Cc1ccccc1 [mephentermine]	279%
CC(C)(C)OC(=O)c1ncn2c1[C@@H]1CCCN1C(=O)c1c(Br)cccc1-2 [bretazenil]	169%
C[N+]1(C)[C@@H]2C[C@@H](OC(=O)[C@H](CO)c3ccccc3)C[C@H]1[C@@H]1O[C@@H]12	185%
CNC(C)Cc1ccccc1OC (stereo unspecified) [methoxyphenamine]	202%
N[C@@H](Cc1ccc(N(CCCl)CCCl)cc1)C(=O)O	302%
C[C@H](N)[C@H](O)c1ccc(O)c(O)c1	163%
CC(NC(C)(C)C)C(=O)c1cccc(Cl)c1 (stereo unspecified) [bupropion]	302% and 245%
C[C@]12COC(=O)C[C@@H]1CC[C@@H]1[C@@H]2CC[C@@]2(C)[C@H]1CC[C@]2(C)O [oxandrolone]	325%
CN[C@H](C)Cc1ccccc1 [levmetamfetamine]	81.6%
O=C1CN=C(c2ccccn2)c2cc(Br)ccc2N1 [bromazepam]	314%
CC(=O)[C@@]1(O)CC[C@H]2[C@@H]3CCC4=CC(=O)CC[C@]4(C)[C@@]3(F)[C@@H](O)C[C@@]21C [flugestone]	96%
CC(C)NCC(O)c1ccccc1Cl (stereo unspecified) [clorprenaline]	132%

15 entries already listed, arranged by length of the SMILES, low to high.
Structure (SMILES)	percent viability
CNC(C)Cc1ccccc1OC (stereo unspecified) [methoxyphenamine]	202%
CNC(C)(C)Cc1ccccc1 [mephentermine]	279%
CC(C)NCC(O)c1ccccc1Cl (stereo unspecified) [clorprenaline]	132%
CCC(Br)(CC)C(=O)NC(N)=O [carbromal]	150%
c1ccc(C2(N3CCCCC3)CCCCC2)cc1 [phencyclidine]	333%
CCCC(C)C1(CC)C(=O)NC(=S)NC1=O (stereo unspecified) [Trapanal]	305%
CC(NC(C)(C)C)C(=O)c1cccc(Cl)c1 (stereo unspecified) [bupropion]	302% and 245%
C[C@H](N)[C@H](O)c1ccc(O)c(O)c1	163%
O=C1CN=C(c2ccccn2)c2cc(Br)ccc2N1 [bromazepam]	314%
N[C@@H](Cc1ccc(N(CCCl)CCCl)cc1)C(=O)O	302%
CCCCCc1cc(O)c2c(c1)OC(C)(C)c1ccc(C)cc1-2 [cannabinol]	124%
NC(=O)c1cc([N+](=O)[O-])cc([N+](=O)[O-])c1	137%
CC(C)(C)OC(=O)c1ncn2c1[C@@H]1CCCN1C(=O)c1c(Br)cccc1-2 [bretazenil]	169%
C[C@]12COC(=O)C[C@@H]1CC[C@@H]1[C@@H]2CC[C@@]2(C)[C@H]1CC[C@]2(C)O [oxandrolone]	325%
CC(=O)[C@@]1(O)CC[C@H]2[C@@H]3CCC4=CC(=O)CC[C@]4(C)[C@@]3(F)[C@@H](O)C[C@@]21C [flugestone]	96%

What follows are molecules tested on SARS-CoV-2 -1 PRF reporter mCherry-FSE-GFP(-1) (assay: mCherry (red) intensity as percent of control; higher = higher upstream reporter expression). Conditions: 10 µM; 24 h; HEK293T.

Structure (SMILES)	mCherry
S=C=NCc1ccccc1	21.2%
Cc1ncc[nH]1.ClCC1CO1 [colestilan]	71.5%
CC(C(=O)c1ccccc1)N(C)C (stereo unspecified) [metamfepramone]	95.4%
CCCC(C)(COC(N)=O)COC(=O)NC1CC1 (stereo unspecified) [lorbamate]	84%
C[C@@H](CO)NC(=O)[C@@H]1C=C2c3cccc4[nH]cc(c34)C[C@H]2N(C)C1	76.9%
O=C(O)[C@@H]1C[C@H](CP(=O)(O)O)CCN1 (racemic) [selfotel]	116%
CC[N+]1(CC)CCC(OC(=O)C(O)(c2ccccc2)c2ccccc2)C1 (stereo unspecified) [benzilonium]	56.6%
CCNC1=Nc2ccc(Cl)cc2C(C)(c2ccccc2)O1 (stereo unspecified) [etifoxine]	86.8%
COc1ccc(CN2CCNCC2)c(OC)c1OC	111%
C/C(=C\c1csc(C)n1)[C@@H]1C[C@@H]2O[C@]2(C)CCC[C@H](C)[C@H](O)[C@@H](C)C(=O)C(C)(C)[C@@H](O)CC(=O)O1 [patupilone]	145%
NC1=NCC(c2ccccc2)O1 (stereo unspecified) [aminorex]	98.3%
C#CCO[C@H]1CN2CCC1CC2 [talsaclidine]	67.9%
CCOc1ccc2c3c1O[C@H]1[C@@H](O)C=C[C@H]4[C@@H](C2)N(C)CC[C@@]341	88.5%
CC(C)c1nc(N(C)S(C)(=O)=O)nc(-c2ccc(F)cc2)c1/C=C/[C@@H](O)C[C@@H](O)CC(=O)O [rosuvastatin]	101%
CN1[C@@H]2CC[C@H]1C[C@@H](OC(=O)[C@H](CO)c1ccccc1)C2 [Levsin]	130%
NC(=O)c1cc([N+](=O)[O-])cc([N+](=O)[O-])c1	118%
CCC(Br)(CC)C(=O)NC(N)=O [carbromal]	81.6%
CCCC(C)C1(CC)C(=O)NC(=S)NC1=O (stereo unspecified) [Trapanal]	95.4%
c1ccc(C2(N3CCCCC3)CCCCC2)cc1 [phencyclidine]	96.7%
CCOC(=O)[C@H]1[C@@H](OC(=O)c2ccccc2)C[C@@H]2CC[C@H]1N2C	76.2%

Shown in markdown: part of the list above.

| Structure (SMILES) | mCherry |
| --- | --- |
| CC[N+]1(CC)CCC(OC(=O)C(O)(c2ccccc2)c2ccccc2)C1 (stereo unspecified) [benzilonium] | 56.6% |
| CCNC1=Nc2ccc(Cl)cc2C(C)(c2ccccc2)O1 (stereo unspecified) [etifoxine] | 86.8% |

Next results follow.

Structure (SMILES)	mCherry
CCCCCc1cc(O)c2c(c1)OC(C)(C)c1ccc(C)cc1-2 [cannabinol]	88.1%
CNC(C)(C)Cc1ccccc1 [mephentermine]	124%
C=C[C@H]1CN2CCC1C[C@H]2[C@H](O)c1ccnc2ccc(OC)cc12 (stereo partly specified) [Quinine·HCl·2H2O]	99.1%
CN1CCc2c(c3ccccc3n2Cc2ccccc2)C1 [mebhydrolin]	104%
CCCNC(C)C(=O)Nc1c(C)csc1C(=O)OC (stereo unspecified) [articaine]	97.5%
CC(C)(C)CC(C)(C)c1ccc(OCCO)cc1 [octoxinol]	67.4%
CC(C)(C)OC(=O)c1ncn2c1[C@@H]1CCCN1C(=O)c1c(Br)cccc1-2 [bretazenil]	104%
C=CCNc1nc(NCC=C)nc(N2CCN(C(c3ccc(F)cc3)c3ccc(F)cc3)CC2)n1 [almitrine]	99.7%
C[N+]1(C)[C@@H]2C[C@@H](OC(=O)[C@H](CO)c3ccccc3)C[C@H]1[C@@H]1O[C@@H]12	66.9%
CNC(C)Cc1ccccc1OC (stereo unspecified) [methoxyphenamine]	102%
N[C@@H](Cc1ccc(N(CCCl)CCCl)cc1)C(=O)O	141%
C[C@H](N)[C@H](O)c1ccc(O)c(O)c1	117%
CC(NC(C)(C)C)C(=O)c1cccc(Cl)c1 (stereo unspecified) [bupropion]	70.4% and 95.2%
C[C@]12COC(=O)C[C@@H]1CC[C@@H]1[C@@H]2CC[C@@]2(C)[C@H]1CC[C@]2(C)O [oxandrolone]	86.5%
CN[C@H](C)Cc1ccccc1 [levmetamfetamine]	95.9%
CN(C)C(=O)C(CC[N@+]1([O-])CC[C@@](O)(c2ccc(Cl)cc2)CC1)(c1ccccc1)c1ccccc1 [loperamide oxide]	95.2%
O=C1CN=C(c2ccccn2)c2cc(Br)ccc2N1 [bromazepam]	83%
CC(=O)[C@@]1(O)CC[C@H]2[C@@H]3CCC4=CC(=O)CC[C@]4(C)[C@@]3(F)[C@@H](O)C[C@@]21C [flugestone]	88.7%
CCN(CC)S(=O)(=O)c1ccc(C(=O)O)cc1 [etebenecid]	106%
CC(C)NCC(O)c1ccccc1Cl (stereo unspecified) [clorprenaline]	73.4%

Reference: the supplement of paper PMC8256030
